The supplement of paper PMC12889115
Some of the results follow. These are raw signals, not scaled to a control.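 In the initial screen, polymyxin B was used at a concentration that permeabilizes Salmonella's outer membrane but not its inner membrane. Maximum growth was set by DMSO wells with or without polymyxin B. Since plates varied, data were ranked per plate, and compounds giving the lowest OD600 advanced as hits.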

Test system: Salmonella enterica serovar Typhimurium SL1344
Experiment: bacterial growth OD600 after 18 h with compound and polymyxin B; higher = more bacterial growth (less inhibition)
Settings: 50 µM, Mueller-Hinton broth

Row | Compound | bacterial growth OD600 (polymyxin B 0.75 µg/mL) | bacterial growth OD600 (polymyxin B 1 µg/mL)
1 | Cc1ccc2[nH]nc(C(=O)NCc3nc(-c4ccc(NC(=O)Cc5ccccc5)cc4)oc3C)c2c1 | 0.836 | 
2 | COc1cccc(CN2CCN(C(=O)CCC3(Cc4ccc(F)cc4)CCC(=O)N3)CC2=O)c1 (stereo unspecified) | 0.816 | 
3 | CN(Cc1cnc(S(=O)(=O)CC2CC2)n1CC1CCCCC1)C1CCOC1 (stereo unspecified) |  | 0.868
4 | CCOC(=O)C1(CCc2ccccc2)CCCN(C(=O)c2cnccn2)C1 (stereo unspecified) |  | 0.917
5 | CC(C)CC1(C2CCN(C(=O)c3ccc(F)c(Cl)c3)CC2)NC(=O)N(Cc2cccs2)C1=O (stereo unspecified) | 0.129 | 
6 | COC(=O)c1ccccc1C(=O)N1CCC(CCC(=O)NCc2cccnc2)CC1 |  | 0.799
7 | O=C(C[n+]1cc([O-])on1)N1CCc2c([nH]c3ccccc23)C1C1CCCCC1 (stereo unspecified) |  | 1.01
8 | O=C1CCC(CCC(=O)N2CCN(Cc3cccc(F)c3)C(=O)C2)(Cc2ccc(Cl)cc2)N1 (stereo unspecified) | 0.91 | 
9 | Cc1c(C(C)NCc2ccccc2OC(F)F)cnn1-c1ccccc1 (stereo unspecified) | 0.829 | 
10 | CC(C)Cn1c(CN(C)Cc2ccccc2)cnc1S(=O)(=O)Cc1ccccc1 |  | 0.552
11 | COc1cccc(-c2ccc(NC(=O)C3CCCN(Cc4cnc(N)nc4)C3)cc2)c1 (stereo unspecified) | 0.005 | 
12 | COc1cccc(CN2CCOc3ccc(C(O)CCc4ccccc4)cc3C2)c1 (stereo unspecified) | 0.007 | 
13 | O=C(c1ccc(Oc2ccccc2)cc1)C1CCCN(C(=O)c2cnsn2)C1 (stereo unspecified) |  | 0.018
14 | CCn1nc(C)cc1C(=O)NCc1cccnc1Oc1ccccc1C |  | 0.914
15 | COc1cccc(CN2C(=O)CCC2CCNCCOc2ccc(F)cc2)c1 (stereo unspecified) | 0.901 | 
16 | O=C(c1ccc(N2CCC(NCCc3cccc(F)c3)CC2)cc1)N1CCCC(O)C1 (stereo unspecified) | 0.923 | 

Row | Compound | bacterial growth OD600 (polymyxin B 0.75 µg/mL) | bacterial growth OD600 (polymyxin B 1 µg/mL)
17 | CN(C(=O)c1coc(COc2cccc(F)c2)n1)C1CCOC1 (stereo unspecified) |  | 1
18 | COc1ccc(OC)c(S(=O)(=O)N(Cc2cccc(OCCN3CCOCC3)c2)Cc2ccccn2)c1 | 0.812 | 
19 | Cc1ccc(OCCN(C)C(=O)C2CC23CCN(Cc2ccc(N(C)C)cc2)CC3)cc1 (stereo unspecified) | 0.647 | 
20 | CN(Cc1cccc2ccccc12)C(=O)C1CCC(=O)N(CCc2cccc(F)c2)C1 (stereo unspecified) |  | 0.491
21 | CCOCCNC(=O)C1(N2CCN(CC)CC2)Cc2ccccc2C1 | 0.892 | 
22 | Cc1ncc(CN2CCC(C3CCN(c4ncccn4)CC3)C2)cn1 (stereo unspecified) | 0.988 | 
23 | O=C(NCCc1ccccn1)C1CC12CCN(C(=O)/C=C/c1ccc(F)cc1)CC2 (stereo unspecified) | 0.844 | 
24 | O=C(Nc1ccc(Oc2cccnc2)cc1)C1CCCCN1Cc1ccccc1 (stereo unspecified) |  | 0.876
25 | COc1ccc(C(=O)NC2CC2)c(OC2CCN(C3CCOCC3)CC2)c1 | 0.836 | 
26 | CC1CN(Cc2ccc3c(c2)CCO3)Cc2ccccc2O1 (stereo unspecified) | 0.786 | 
27 | CCN1CCC(N2CCC(C(=O)Nc3ccc(Oc4ccccc4F)cc3)CC2)CC1 |  | 0.9
28 | COc1cccc(OCC2CCCN(Cc3nc(-c4ccccc4)no3)C2)c1 (stereo unspecified) |  | 0.843
29 | Cc1ccc(OCc2cc(C(=O)N3CCCCC3c3ccc(F)cc3)no2)cn1 (stereo unspecified) |  | 0.021
30 | CN(Cc1cnccn1)C(=O)CC(c1ccccc1)c1ccc(Cl)cc1 (stereo unspecified) |  | 0.712
31 | Cc1oc(-c2cccc(F)c2)nc1CN(C)C(C)c1cccs1 (stereo unspecified) |  | 0.629

Reformatted: seven of the compounds above
Row	Compound	bacterial growth OD600 (polymyxin B 0.75 µg/mL)	bacterial growth OD600 (polymyxin B 1 µg/mL)
22	Cc1ncc(CN2CCC(C3CCN(c4ncccn4)CC3)C2)cn1 (stereo unspecified)	0.988	
23	O=C(NCCc1ccccn1)C1CC12CCN(C(=O)/C=C/c1ccc(F)cc1)CC2 (stereo unspecified)	0.844	
24	O=C(Nc1ccc(Oc2cccnc2)cc1)C1CCCCN1Cc1ccccc1 (stereo unspecified)		0.876
25	COc1ccc(C(=O)NC2CC2)c(OC2CCN(C3CCOCC3)CC2)c1	0.836	
26	CC1CN(Cc2ccc3c(c2)CCO3)Cc2ccccc2O1 (stereo unspecified)	0.786	
27	CCN1CCC(N2CCC(C(=O)Nc3ccc(Oc4ccccc4F)cc3)CC2)CC1		0.9
28	COc1cccc(OCC2CCCN(Cc3nc(-c4ccccc4)no3)C2)c1 (stereo unspecified)		0.843
